Reference: publication PMC10691236 (Proceedings of the National Academy of Sciences of the …, 2023)

Tested on: ADP-detection enzymes
Experiment: ADP-Glo counter screen (CDK2 replaced with 10 µM ADP)
Assay type: biochemical
Conditions: CDK2/cyclin E1 replaced with 10 µM ADP

Structure (SMILES)	increase in luminescence signal relative to the DMSO control [fold]	inhibition of ADP detection in ADP-Glo control reactions
Cc1cc(O)c(C)c(O)c1C(=O)Oc1cc(C)c(C(=O)O)c(O)c1C [compound 6, 4-o-demethyl barbatic acid]	2	do not inhibit the ADP-detection assay
CO[C@@]1(C)[C@H](O)C(O)=C(C)C(=O)[C@@H]1Oc1cc(C)cc(O)c1C [compound 11, aculeatusquinone C]	–	do not inhibit the ADP-detection assay
Cc1cc(O)c(C)c2c1C(=O)Oc1c(C)c(O)c(O)c(C)c1O2 [compound 10, roseopurpurin G]	–	do not inhibit the ADP-detection assay
Cc1cc(O)c(C)c2c1Oc1c(C)c(O)cc(C)c1C(=O)O2 [compound 8, 3,8-dihydroxy-1,4,6,9-tetramethyl-dibenzo[b,e][1,4]dioxepin-11-one]	–	do not inhibit the ADP-detection assay

Some entries repeat one wording, which the source may state once for all of them.
